Results are given in words; binding and its absence hold for the method and conditions named. Some binding calls cover weakened binding; strength is not graded here.
Target: human BACE1 (residues 57-453), C-terminal His6 (human) (UniProt P56817)
Assay: co-crystal structure at 1.5 Å

The chains behind the UniProt entries cited, without tags or fusion partners. Where a name states a change or a piece, a line headed by the entry shows the natural chain unless it says otherwise.
UniProt P56817: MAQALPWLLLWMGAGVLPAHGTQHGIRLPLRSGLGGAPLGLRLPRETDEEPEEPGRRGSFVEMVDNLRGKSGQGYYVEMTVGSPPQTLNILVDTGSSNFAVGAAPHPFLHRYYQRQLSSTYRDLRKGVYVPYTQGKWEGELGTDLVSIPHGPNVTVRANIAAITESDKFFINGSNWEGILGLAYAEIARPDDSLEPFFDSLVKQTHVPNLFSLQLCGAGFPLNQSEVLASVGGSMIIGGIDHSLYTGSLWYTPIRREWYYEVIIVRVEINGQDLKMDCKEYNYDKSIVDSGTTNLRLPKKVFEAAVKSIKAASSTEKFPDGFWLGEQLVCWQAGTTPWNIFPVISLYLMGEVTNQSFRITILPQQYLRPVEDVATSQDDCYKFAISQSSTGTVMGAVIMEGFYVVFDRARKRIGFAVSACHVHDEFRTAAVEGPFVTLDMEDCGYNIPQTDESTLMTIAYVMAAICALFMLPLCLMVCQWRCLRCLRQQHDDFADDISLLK

Row | Binder | binding
1 | ESMYCRLLGIGCG (N-terminal acetyl (Ac); C-terminal amide (NH2); disulfide Cys5-Cys12) [BACE030] | binds

Target: T1, recombinant human BACE1 (rhBACE1) (human, UniProt P56817 22-457, limits assumed)
Assay: solution sorting with BACE010 as competitor; phage spot ELISA

Row | Binder | binding
2 | KEESIYCRLMGLGCG (not shown: M13 major coat protein; peptide fused to its N-terminus) [phage-displayed peptide BACE018 (SEQ ID NO 14)] | binds
3 | NMESVHCRLLGLGCG (not shown: M13 major coat protein; peptide fused to its N-terminus) [SEQ ID NO 69] | binds
4 | NEESIYCRLLGLGCG (peptide, not shown: large carriers) [SEQ ID NO 70] | binds
5 | KEENIYCRLLSLGCS (not shown: M13 major coat protein; peptide fused to its N-terminus) [SEQ ID NO 71] | binds
6 | NEESIYCRLLGLACG (peptide, not shown: large carriers) [SEQ ID NO 72] | binds
7 | KEDSMYCRLLGLGCG (peptide, not shown: large carriers) [SEQ ID NO 73] | binds
8 | NELSPYCRLMGLGCD (not shown: M13 major coat protein; peptide fused to its N-terminus) [phage-displayed peptide BACE019 (SEQ ID NO 15)] | binds
9 | VEESIYCRLLGLGCG (not shown: M13 major coat protein; peptide fused to its N-terminus) [SEQ ID NO 74] | binds
10 | IEESIYCRLLGFGCG (not shown: M13 major coat protein; peptide fused to its N-terminus) [SEQ ID NO 75] | binds
11 | NGDNMYCRLLGLGCE (peptide, not shown: large carriers) [SEQ ID NO 76] | binds
12 | DVESVYCRLLGLGCG (peptide, not shown: large carriers) [SEQ ID NO 77] | binds
13 | NDESVYCRLLGIGCG (not shown: M13 major coat protein; peptide fused to its N-terminus) [SEQ ID NO 78] | binds
14 | NEESMYCRLLGIGCG (peptide, not shown: large carriers) [phage-displayed peptide BACE020 (SEQ ID NO 16)] | binds
15 | TEESLYCRLLGVGCG (peptide, not shown: large carriers) [SEQ ID NO 79] | binds
16 | KEESIHCRLLGLGCG (not shown: M13 major coat protein; peptide fused to its N-terminus) [SEQ ID NO 80] | binds
17 | NVEHIHCRLLGLGCG (peptide, not shown: large carriers) [SEQ ID NO 81] | binds

Row | Binder | binding
18 | NDDSLYCRLLGLGCG (peptide, not shown: large carriers) [SEQ ID NO 82] | binds
19 | YEESIYCRLLGIGCG (peptide, not shown: large carriers) [SEQ ID NO 83] | binds
20 | TDESIYCRLLSIACG (peptide, not shown: large carriers) [SEQ ID NO 84] | binds
21 | KEESIYCRLLGHGCG (peptide, not shown: large carriers) [SEQ ID NO 85] | binds
22 | NEENMYCRLMGIGCG (peptide, not shown: large carriers) [SEQ ID NO 86] | binds
23 | PEESLYCRLLALGCG (not shown: M13 major coat protein; peptide fused to its N-terminus) [phage-displayed peptide BACE021 (SEQ ID NO 17)] | binds
24 | YEESIYCRLLGLGCG (peptide, not shown: large carriers) [SEQ ID NO 87] | binds
25 | HEDHLYCRLLGIGCG (peptide, not shown: large carriers) [SEQ ID NO 88] | binds
26 | KEESLYCRLLGLGCG (peptide, not shown: large carriers) [SEQ ID NO 89] | binds
27 | TEESIYCRLLGLGCD (not shown: M13 major coat protein; peptide fused to its N-terminus) [SEQ ID NO 90] | binds
28 | AEESIYCRLLGLGCG (peptide, not shown: large carriers) [SEQ ID NO 91] | binds
29 | NEVSLYCRLLDLGCG (peptide, not shown: large carriers) [SEQ ID NO 92] | binds
30 | NPENNYCRLLNLGCG (not shown: M13 major coat protein; peptide fused to its N-terminus) [SEQ ID NO 93] | binds
31 | NDEHMYCRLLGLDCN (peptide, not shown: large carriers) [SEQ ID NO 94] | binds
32 | NDENMYCRLLGLGCA (peptide, not shown: large carriers) [SEQ ID NO 95] | binds

Target: T1, recombinant human BACE1 (rhBACE1)
Assay: used at 100 µM as competitor in solution sorting on BACE1

Row | Binder | binding
33 | SGPYFIEYMSAV (N-terminal acetyl (Ac); C-terminal amide (NH2)) [BACE010 (Ac-…-NH2)] | binds

Target: T1, recombinant human BACE1 (rhBACE1)
Assay: plate sorting on BACE1; phage ELISA

Row | Binder | binding
34 | SGPYFIEYMSAV (peptide, not shown: large carriers) [phage-displayed peptide BACE010 (SEQ ID NO 21)] | binds
35 | SGSDIASLPTPYFLSI (peptide, not shown: large carriers) [SEQ ID NO 56] | binds
36 | SGTMFPYFLEVG (peptide, not shown: large carriers) [SEQ ID NO 57] | binds
37 | SGCFDYPCFLTIDI (peptide, not shown: large carriers) [SEQ ID NO 58] | binds
38 | SGNIPFFYGDRFLD (peptide, not shown: large carriers) [SEQ ID NO 59] | binds
39 | SGGLGFPYFIHVGA (peptide, not shown: large carriers) [SEQ ID NO 60] | binds
40 | SGPYFVEFLSAVVVRSG (peptide, not shown: large carriers) [SEQ ID NO 61] | binds
41 | SGYPYFPIINSENISSID (peptide, not shown: large carriers) [SEQ ID NO 62] | binds
42 | SGTMFPYFLEV (peptide, not shown: large carriers) [SEQ ID NO 63] | binds
43 | SGGLPSGCLDYPCFVPIS (peptide, not shown: large carriers) [SEQ ID NO 64] | binds
44 | SGYFLCLFEDVWVSCGLL (peptide, not shown: large carriers) [SEQ ID NO 65] | binds
45 | SGYFLCAFAHGWALCNAD (peptide, not shown: large carriers) [SEQ ID NO 66] | binds
46 | SGVHYFLCIVESCSVYPA (peptide, not shown: large carriers) [SEQ ID NO 67] | binds
47 | SGVFFMACDYVNCTDFSV (peptide, not shown: large carriers) [SEQ ID NO 68] | binds

Target: T1, recombinant human BACE1 (rhBACE1)
Assay: phage ELISA on BACE1; 70 nM BMS1 against peptide-displaying phage

Row | Binder | binding
48 | NLTTYPYFIPLP (N-terminal acetyl (Ac); C-terminal amide (NH2)) [BMS1] | binds
